Results: PubChem BioAssay AID248 (DTP/NCI, 2004)
The list does not hold the whole screen: it gathers some chemical classes. Not every dose and run of a compound is shown. T/C is the treated group as % of the vehicle group. Some doses have a count of surviving animals in place of a T/C: the source files T/C as zero there, which appears to mark a toxic dose or a test without result, not a measured value. Some survivor counts are full or nearly so, which does not show that the dose was tolerated: survival well below the control is almost never listed, so the zero probably covers shortened survival too. Survivors were counted at the toxicity check, usually on the fifth day, unless a day is given; later deaths do not show. Schedules are NCI's codes, read here as Q, the interval in days (D) or hours (H), X, the number of doses. Where survival is the endpoint, this PubChem deposit counts one and a half times the control or more as active, and values a quarter to a half above the control carry no call in these data; other NCI protocols may use other cut-offs. Marks such as (2×) count equal records among those shown. Some doses were run more than once; their values stand side by side, smallest first. Some T/C values carry the count of animals alive at the toxicity check (mostly the fifth day); without a count or a note in brackets, all were alive then.

System: L1210 leukemia ip in BDF1 mice, survival T/C
Experiment: NCI In Vivo Anticancer Drug Screen. Data for tumor model L1210 Leukemia (intraperitoneal) in B6D2F1 (BDF1) mice
Conditions: T/C endpoint: mean survival time, higher T/C = longer survival

## COC1OC(CNCCCl)C2OC(C)(C)OC12 (stereo unspecified)
dose: 1.0 mg/kg/injection, schedule: Q01DX015 (ip), vehicle: saline
  T/C: 123 % of control
dose: 1.6 mg/kg/injection, schedule: Q01DX015 (ip), vehicle: saline
  T/C: 123 % of control
dose: 2.4 mg/kg/injection, schedule: Q01DX015 (ip), vehicle: saline
  T/C: 129 % of control
dose: 3.1 mg/kg/injection, schedule: Q01DX015 (ip), vehicle: saline
  T/C: 93, 97, 102 % of control
dose: 3.6 mg/kg/injection, schedule: Q01DX015 (ip), vehicle: saline
  T/C: 134 and 138 % of control
dose: 5.5 mg/kg/injection, schedule: Q01DX015 (ip), vehicle: saline
  T/C: 142 % of control
dose: 6.25 mg/kg/injection, schedule: Q01DX009 (ip), vehicle: water
  survivor count: 10 of 10
dose: 6.25 mg/kg/injection, schedule: Q01DX015 (ip), vehicle: clinical formulation
  T/C: 94 and 102 % of control
dose: 6.25 mg/kg/injection, schedule: Q01DX015 (ip), vehicle: saline, evaluated on day 30
  T/C: 96, 98, 112 % of control
dose: 6.25 mg/kg/injection, schedule: Q01DX015 (ip), vehicle: saline, run until all animals had died
  T/C: 97 % of control
dose: 6.25 mg/kg/injection, schedule: Q01DX015 (ip), vehicle: water
  T/C: 100 and 102 % of control
dose: 8.0 mg/kg/injection, schedule: Q03HX024 (ip), vehicle: saline
  T/C: 101 % of control
dose: 8.3 mg/kg/injection, schedule: Q01DX015 (ip), vehicle: saline
  T/C: 139 % of control
dose: 12.5 mg/kg/injection, schedule: Q01DX009 (ip), vehicle: water
  T/C: 103 % of control
dose: 12.5 mg/kg/injection, schedule: Q01DX015 (ip), vehicle: clinical formulation
  T/C: 94 and 97 % of control
dose: 12.5 mg/kg/injection, schedule: Q01DX015 (ip), vehicle: saline, evaluated on day 30
  T/C: 94, 95, 96, 102, 103, 107, 172, 221 % of control
dose: 12.5 mg/kg/injection, schedule: Q01DX015 (ip), vehicle: saline, run until all animals had died
  T/C: 93 % of control
dose: 12.5 mg/kg/injection, schedule: Q01DX015 (ip), vehicle: water
  T/C: 97 and 105 % of control
dose: 16.0 mg/kg/injection, schedule: Q01DX006 (iv), vehicle: saline
  T/C: 95 % of control
dose: 16.0 mg/kg/injection, schedule: Q01DX009 (ip), vehicle: saline
  T/C: 102 % of control
dose: 16.0 mg/kg/injection, schedule: Q01DX009 (sc), vehicle: saline
  T/C: 103 % of control
dose: 16.0 mg/kg/injection, schedule: Q03HX008 (ip), vehicle: saline
  T/C: 107 % of control
dose: 16.0 mg/kg/injection, schedule: Q03HX016 (ip), vehicle: saline
  T/C: 98 % of control
dose: 16.0 mg/kg/injection, schedule: Q03HX024 (ip), vehicle: saline
  T/C: 96 % of control
dose: 25.0 mg/kg/injection, schedule: Q01DX009 (ip), vehicle: water
  T/C: 101 % of control
dose: 25.0 mg/kg/injection, schedule: Q01DX015 (ip), vehicle: clinical formulation
  T/C: 94 and 100 % of control
dose: 25.0 mg/kg/injection, schedule: Q01DX015 (ip), vehicle: saline, evaluated on day 30
  T/C: 100 (2×), 107, 182 % of control
dose: 25.0 mg/kg/injection, schedule: Q01DX015 (ip), vehicle: saline, run until all animals had died
  T/C: 109 and 114 % of control
dose: 25.0 mg/kg/injection, schedule: Q01DX015 (ip), vehicle: water
  T/C: 98 [5 of 6 alive] and 100 % of control
dose: 32.0 mg/kg/injection, schedule: Q01DX005 (ip), vehicle: saline
  T/C: 105 % of control
dose: 32.0 mg/kg/injection, schedule: Q01DX006 (iv), vehicle: saline
  T/C: 101 % of control
dose: 32.0 mg/kg/injection, schedule: Q01DX009 (ip), vehicle: saline
  T/C: 103 % of control
dose: 32.0 mg/kg/injection, schedule: Q01DX009 (sc), vehicle: saline
  T/C: 98 % of control
dose: 32.0 mg/kg/injection, schedule: Q03HX008 (ip), vehicle: saline
  T/C: 107 % of control
dose: 32.0 mg/kg/injection, schedule: Q03HX016 (ip), vehicle: saline
  T/C: 95 % of control
dose: 32.0 mg/kg/injection, schedule: Q03HX024 (ip), vehicle: saline
  T/C: 100 % of control
dose: 50.0 mg/kg/injection, schedule: Q01DX005 (ip), vehicle: saline
  T/C: 102 % of control (2×)
dose: 50.0 mg/kg/injection, schedule: Q01DX009 (ip), vehicle: water
  T/C: 103 % of control
dose: 50.0 mg/kg/injection, schedule: Q01DX015 (ip), vehicle: clinical formulation
  T/C: 96 and 103 % of control
dose: 50.0 mg/kg/injection, schedule: Q01DX015 (ip), vehicle: saline, evaluated on day 30
  T/C: 98 (2×), 101, 103, 104 (2×), 210 % of control
dose: 50.0 mg/kg/injection, schedule: Q01DX015 (ip), vehicle: saline, run until all animals had died
  T/C: 110 and 121 % of control
dose: 50.0 mg/kg/injection, schedule: Q01DX015 (ip), vehicle: water
  T/C: 96 and 97 % of control
dose: 64.0 mg/kg/injection, schedule: Q01DX005 (ip), vehicle: saline
  T/C: 100 % of control
dose: 64.0 mg/kg/injection, schedule: Q01DX006 (iv), vehicle: saline
  T/C: 98 % of control
dose: 64.0 mg/kg/injection, schedule: Q01DX009 (ip), vehicle: saline
  T/C: 102 % of control
dose: 64.0 mg/kg/injection, schedule: Q01DX009 (oral), vehicle: saline
  T/C: 97 % of control
dose: 64.0 mg/kg/injection, schedule: Q01DX009 (sc), vehicle: saline
  T/C: 95 % of control
dose: 64.0 mg/kg/injection, schedule: Q03HX008 (ip), vehicle: saline
  T/C: 102 % of control
dose: 64.0 mg/kg/injection, schedule: Q03HX016 (ip), vehicle: saline
  T/C: 100 % of control
dose: 64.0 mg/kg/injection, schedule: Q03HX024 (ip), vehicle: saline
  T/C: 96 % of control
dose: 64.0 mg/kg/injection, schedule: Q04DX003 (ip), vehicle: saline
  T/C: 95 % of control
dose: 100.0 mg/kg/injection, schedule: Q01DX005 (ip), vehicle: saline
  T/C: 103 and 105 % of control
dose: 100.0 mg/kg/injection, schedule: Q01DX009 (ip), vehicle: water
  T/C: 100 % of control
dose: 100.0 mg/kg/injection, schedule: Q01DX015 (ip), vehicle: clinical formulation
  T/C: 94 and 103 % of control
dose: 100.0 mg/kg/injection, schedule: Q01DX015 (ip), vehicle: saline, evaluated on day 30
  T/C: 93, 96, 107, 131 % of control
dose: 100.0 mg/kg/injection, schedule: Q01DX015 (ip), vehicle: saline, run until all animals had died
  T/C: 128 and 140 % of control
